From publication PMC8333360
Results are given in words; binding and its absence hold for the method and conditions named.

Chains of the proteins cited; added tags and fusions are not shown. Residues count along the entry.
UniProt P02769, residues 25-607: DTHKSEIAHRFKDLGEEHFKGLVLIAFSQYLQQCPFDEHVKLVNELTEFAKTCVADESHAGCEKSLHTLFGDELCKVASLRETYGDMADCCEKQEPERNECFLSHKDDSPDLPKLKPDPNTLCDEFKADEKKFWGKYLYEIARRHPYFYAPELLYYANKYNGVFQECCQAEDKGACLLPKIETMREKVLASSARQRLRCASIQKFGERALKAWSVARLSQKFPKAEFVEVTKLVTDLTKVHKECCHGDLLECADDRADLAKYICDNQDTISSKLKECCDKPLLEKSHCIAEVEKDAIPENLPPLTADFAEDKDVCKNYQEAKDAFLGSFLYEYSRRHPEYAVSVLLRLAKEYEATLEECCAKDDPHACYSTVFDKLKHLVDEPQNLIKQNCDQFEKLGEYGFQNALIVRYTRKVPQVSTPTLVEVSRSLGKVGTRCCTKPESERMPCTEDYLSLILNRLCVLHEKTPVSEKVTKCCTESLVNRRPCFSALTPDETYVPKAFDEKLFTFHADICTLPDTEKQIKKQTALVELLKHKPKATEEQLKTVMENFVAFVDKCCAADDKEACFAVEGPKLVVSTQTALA

Molecular target: T1, 4E-BP1 peptide (CCALNN-GG-…) on gold nanoparticles
T1 sequence (peptide, bound to the AuNP surface through the thiol of the N-terminal cysteine): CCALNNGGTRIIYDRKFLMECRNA
Assay: controlled aggregation assay of two AuNP conjugates (UV-Vis absorption shift); m7G-cap-TL-AuNP conjugate (0.6 nM in HEPES buffer) incubated 1 h at room temperature with protein (eIF4E 5 nM to 2.56 uM), then an equal volume of 4E-BP1-AuNP conjugate (0.6 nM) added and incubated another hour; absorption measured; both purified

**Q.** BSA (from UniProt P02769 25-607) was tested. Which binding did it give?
**A.** The binding was “no binding (tested: 80 nM, 800 nM and 8 µM)”.
